Laboratory results: publication PMC10878152
No constants are given. Whether binding was seen depends on the method and setting. In cells and extracts the contact can be indirect. Some results given as binding are weak or reduced against the parent protein; the word gives no strength.

Sequences of proteins named here, by UniProt entry; tags and fusion partners are left off.
UniProt Q91X83: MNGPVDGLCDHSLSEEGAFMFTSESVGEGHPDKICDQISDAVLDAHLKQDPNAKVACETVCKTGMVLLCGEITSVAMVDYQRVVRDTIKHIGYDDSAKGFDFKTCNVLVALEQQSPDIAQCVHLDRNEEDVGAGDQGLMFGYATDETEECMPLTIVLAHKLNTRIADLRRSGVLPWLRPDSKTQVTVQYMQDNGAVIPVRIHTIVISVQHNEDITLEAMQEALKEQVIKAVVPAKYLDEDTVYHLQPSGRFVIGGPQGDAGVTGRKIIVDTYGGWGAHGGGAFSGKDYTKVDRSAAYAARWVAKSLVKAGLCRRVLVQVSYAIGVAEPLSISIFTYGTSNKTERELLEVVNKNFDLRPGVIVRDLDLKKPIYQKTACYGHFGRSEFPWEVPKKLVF
UniProt Q78YY6: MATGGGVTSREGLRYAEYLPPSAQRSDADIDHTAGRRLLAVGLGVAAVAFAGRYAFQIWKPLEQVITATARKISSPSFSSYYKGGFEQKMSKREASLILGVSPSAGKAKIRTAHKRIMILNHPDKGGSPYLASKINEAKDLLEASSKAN

Tests used:
[1] = biological target: methionine adenosyltransferase alpha 1 (MATα1), mouse (mouse (endogenous in mouse liver)) (UniProt Q91X83); experiment: co-IP; 700 ug of whole liver or cell extract, pre-cleaned with normal Ig and protein A+G-agarose; IP with 3 ug anti-MATα1 antibody overnight at 4°C; washed five times with IP buffer (150 mM NaCl, 0.5% deoxycholate, 0.1% SDS, 1% NP-40, 50 mM Tris-HCl pH 7.5); western blot; normal Ig as control
[2] = biological target: methionine adenosyltransferase alpha 1 (MATα1), mouse (mouse (endogenous in mouse liver)) (UniProt Q91X83); experiment: co-IP; 350 ug of liver mitochondrial fraction, pre-cleaned with normal Ig and protein A+G-agarose; IP with 3 ug anti-MATα1 or anti-MCJ antibody overnight at 4°C; washed five times with IP buffer (150 mM NaCl, 0.5% deoxycholate, 0.1% SDS, 1% NP-40, 50 mM Tris-HCl pH 7.5); western blot; normal Ig as control

binding [1]: binds
binding [2]: binds
Substance: MCJ (Methylation-Controlled J protein), mouse (from UniProt Q78YY6 1-149)
